{"source": "the supplement of paper PMC8975748", "note": "Structures can show the parent of a compound that is named as a salt. ± gives the standard deviation of the averaged measurements. Some of the results follow. These are raw signals, not scaled to a control.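 The yeast community starts from one strain carrying four plasmids, each with an amino-acid or uracil synthesis gene and a fluorescent protein. Random plasmid loss creates mixed prototroph and auxotroph subpopulations. Cells were fixed and counted by automated confocal fluorescence imaging, and DMSO-treated wells served as the vehicle reference.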 Numbered stars: 1 amine (or outer) side, 2 acyl side, 3 side chain; on linkers, the order of the positions; unused ones are H or OH. Bridge positions count the residues as written; N and C are the ends. Square brackets hold non-standard residues; d marks the D form. Peptide text beside a SMILES is read from it. * marks the point of attachment. hTyr(3S-OH,4S-OH,3'-OSO3H) = N[C@H](C(=O)O)[C@H](O)[C@@H](O)c1ccc(O)c(OS(=O)(=O)O)c1; Orn(4R-OH,5R-OH) = O=C([C@H](C[C@@H](O)[C@@H](O)N[*:3])N[*:1])[*:2]; Pro(3S-OH,4S-Me) = C[C@H]1CN[C@H](C(=O)O)[C@H]1O; X2 = CCCCCOc1ccc(-c2cc(-c3ccc(C(=O)*)cc3)no2)cc1; Gln(3R-OH) = NC(=O)C[C@@H](O)[C@H](N)C(=O)O; Hyp = O=C(O)[C@@H]1C[C@@H](O)CN1"}
{"system": "Saccharomyces cerevisiae BY4741 SeMeCo community", "assay": "imaged cell count per well (cells); higher = more cells", "conditions": "10 µM; 24 h; SM minimal medium", "procedure": "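Same SeMeCo high-content imaging drug screen: Selleck FDA-approved drugs at 10 µM, 24 h in SM medium, 384-well plates, 3 replicates.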"}
{"smiles": "CCN1CC(CCN2CCOCC2)C(c2ccccc2)(c2ccccc2)C1=O", "note": "(stereo not given) [Doxapram HCl]", "imaged cell count per well": "24000 ± 4200"}
{"smiles": "Cc1c(OCC(F)(F)F)ccnc1C[S+]([O-])c1nc2ccccc2[nH]1", "note": "(stereo not given) [Lansoprazole]", "imaged cell count per well": "20600 ± 4200"}
{"smiles": "COc1ccnc(C[S+]([O-])c2nc3cc(OC(F)F)ccc3[nH]2)c1OC", "note": "(stereo not given) [Pantoprazole]", "imaged cell count per well": "20400 ± 1200"}
{"smiles": "N#C/C(=C1/SC[C@@H](c2ccc(Cl)cc2Cl)S1)n1ccnc1", "note": "[Luliconazole]", "imaged cell count per well": "3090 ± 800"}
{"smiles": "Cc1nc(=O)c2cc(CN(C)c3ccc(C(=O)N[C@@H](CCC(=O)O)C(=O)O)s3)ccc2[nH]1", "note": "[Raltitrexed]", "imaged cell count per well": "27300 ± 2000"}
{"smiles": "CN[C@H](CC(C)C)C(=O)N[C@H]1C(=O)N[C@@H](CC(N)=O)C(=O)N[C@H]2C(=O)N[C@H]3C(=O)N[C@H](C(=O)N[C@H](C(=O)O)c4cc(O)cc(O)c4-c4cc3ccc4O)[C@H](O)c3ccc(c(Cl)c3)Oc3cc2cc(c3O[C@@H]2O[C@H](CO)[C@@H](O)[C@H](O)[C@H]2O[C@H]2C[C@](C)(N)[C@H](O)[C@H](C)O2)Oc2ccc(cc2Cl)[C@H]1O", "note": "[Vancomycin]", "imaged cell count per well": "22600 ± 5500"}
{"smiles": "CC[C@H]1OC(=O)[C@H](C)[C@@H](O[C@H]2C[C@@](C)(OC)[C@@H](O)[C@H](C)O2)[C@H](C)[C@@H](O[C@@H]2O[C@H](C)C[C@H](N(C)C)[C@H]2O)[C@](C)(O)C[C@@H](C)/C(=N\\OCOCCOC)[C@H](C)[C@@H](O)[C@]1(C)O", "note": "[Roxithromycin]", "imaged cell count per well": "25300 ± 4600"}
{"smiles": "CN[C@@H]1[C@H](O[C@H]2[C@H](O[C@H]3[C@H](O)[C@@H](O)[C@H](NC(=N)N)[C@@H](O)[C@@H]3NC(=N)N)O[C@@H](C)[C@]2(O)CO)O[C@@H](CO)[C@H](O)[C@H]1O", "note": "[Dihydrostreptomycin sulfate]", "imaged cell count per well": "20200 ± 6800"}
{"smiles": "Nc1nc(N)c2nc(-c3ccccc3)c(N)nc2n1", "note": "[Triamterene]", "imaged cell count per well": "26400 ± 5000"}
{"smiles": "CC1=C(C(=O)OC(C)C)C(c2cccc([N+](=O)[O-])c2)C(C(=O)OC2CN(C(c3ccccc3)c3ccccc3)C2)=C(N)N1", "note": "(stereo not given) [Azelnidipine]", "imaged cell count per well": "26500 ± 9200"}
{"smiles": "CC(C)(O/N=C(\\C(=O)N[C@@H]1C(=O)N2C(C(=O)[O-])=C(C[n+]3ccccc3)CS[C@H]12)c1csc(N)n1)C(=O)O", "note": "[Ceftazidime]", "imaged cell count per well": "28100 ± 5600"}
{"smiles": "Cc1ccc2c(Cl)cc(Cl)c(O)c2n1", "note": "[Chlorquinaldol]", "imaged cell count per well": "547 ± 320"}
{"smiles": "CN[C@@H]1[C@@H](O)[C@@H](O[C@@H]2[C@@H](O)[C@H](O[C@H]3OC(CN)=CC[C@H]3N)[C@@H](N)C[C@H]2N)OC[C@]1(C)O", "note": "[Sisomicin sulfate]", "imaged cell count per well": "19100 ± 7400"}
{"smiles": "CCCCCCCCCC(=O)CC(O)S(=O)(=O)O", "note": "(stereo not given) [Sodium Houttuyfonate]", "imaged cell count per well": "31000 ± 3900"}
{"smiles": "C/C(=C\\C(=O)OCCCCCCCCC(=O)O)C[C@@H]1OC[C@H](C[C@@H]2O[C@H]2[C@@H](C)[C@H](C)O)[C@@H](O)[C@H]1O", "note": "[Mupirocin calcium]", "imaged cell count per well": "26200 ± 3400"}
{"smiles": "Cc1nnc(SCC2=C(C(=O)O)N3C(=O)[C@@H](NC(=O)Cn4cc(Cl)c(=O)c(Cl)c4)[C@H]3SC2)s1", "note": "[Cefazedone]", "imaged cell count per well": "23400 ± 9500"}
{"smiles": "CC[C@H]1OC(=O)[C@H](C)[C@@H](O[C@H]2C[C@@](C)(OC)[C@@H](O)[C@H](C)O2)[C@H](C)[C@@H](O[C@@H]2O[C@H](C)C[C@H](N(C)C)[C@H]2O)[C@](C)(O)C[C@@H](C)[C@@H]2N[C@@H](COCCOC)O[C@H]([C@H]2C)[C@]1(C)O", "note": "[Dirithromycin]", "imaged cell count per well": "27200 ± 7500"}
{"smiles": "COc1ccc2cc3[n+](cc2c1OC)CCc1cc2c(cc1-3)OCO2", "note": "[Berberine Sulfate]", "imaged cell count per well": "23000 ± 4400"}
{"smiles": "CCN(CC)CC#CCOC(=O)C(O)(c1ccccc1)C1CCCCC1", "note": "(stereo not given) [Oxybutynin chloride]", "imaged cell count per well": "23800 ± 2900"}
{"smiles": "CCCCCCCCCC(=O)N[C@H]1[C@H](Oc2c3cc4cc2Oc2ccc(cc2Cl)[C@@H](O[C@@H]2O[C@H](CO)[C@@H](O)[C@H](O)[C@H]2NC(C)=O)[C@@H]2NC(=O)[C@H](NC(=O)[C@@H]4NC(=O)[C@H]4NC(=O)[C@@H](Cc5ccc(c(Cl)c5)O3)NC(=O)[C@H](N)c3ccc(O)c(c3)Oc3cc(O)cc4c3)c3ccc(O)c(c3)-c3c(OC4O[C@H](CO)[C@@H](O)[C@H](O)[C@@H]4O)cc(O)cc3[C@@H](C(=O)O)NC2=O)O[C@H](CO)[C@@H](O)[C@@H]1O", "note": "(stereo not given in full) [Teicoplanin]", "imaged cell count per well": "32600 ± 5200"}
{"smiles": "COc1cccc(-c2c(C)n(Cc3c(F)cccc3C(F)(F)F)c(=O)n(C[C@H](NCCCC(=O)O)c3ccccc3)c2=O)c1F", "note": "[Elagolix Sodium]", "imaged cell count per well": "23900 ± 13000"}
{"smiles": "COc1ccc2[nH]c([S+]([O-])Cc3ncc(C)c(OC)c3C)nc2c1", "note": "(stereo not given) [Omeprazole]", "imaged cell count per well": "26000 ± 2700"}
{"smiles": "CCCCOc1cc(C(=O)NCCN(CC)CC)c2ccccc2n1", "note": "[Dibucaine HCl]", "imaged cell count per well": "25800 ± 4200"}
{"smiles": "CNCC[C@H](Oc1cccc2ccccc12)c1cccs1", "note": "[Duloxetine]", "imaged cell count per well": "24800 ± 3800"}
{"smiles": "CCCCCOc1ccc(-c2cc(-c3ccc(C(=O)N[C@H]4C[C@@H](O)[C@@H](O)NC(=O)[C@@H]5[C@@H](O)[C@@H](C)CN5C(=O)[C@H]([C@H](O)CC(N)=O)NC(=O)[C@H]([C@H](O)[C@@H](O)c5ccc(O)c(OS(=O)(=O)O)c5)NC(=O)[C@@H]5C[C@@H](O)CN5C(=O)[C@H]([C@@H](C)O)NC4=O)cc3)no2)cc1", "note": "[Micafungin Sodium] (X2-[Orn(4R-OH,5R-OH)]T[Hyp][hTyr(3S-OH,4S-OH,3'-OSO3H)][Gln(3R-OH)][Pro(3S-OH,4S-Me)]; lactam 1-C)", "imaged cell count per well": "1010 ± 330"}
